Here are results for 2 substances from article PMC9135943.

Chains of the proteins cited; added tags and fusions are not shown. Lines headed by an entry give the natural chain unless they say otherwise; changes in a name come on top. Residues count along the entry.
UniProt P63165, residues 1-97: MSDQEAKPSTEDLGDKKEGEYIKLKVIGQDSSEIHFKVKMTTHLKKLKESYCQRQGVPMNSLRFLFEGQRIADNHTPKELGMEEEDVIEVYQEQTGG
UniProt P08047: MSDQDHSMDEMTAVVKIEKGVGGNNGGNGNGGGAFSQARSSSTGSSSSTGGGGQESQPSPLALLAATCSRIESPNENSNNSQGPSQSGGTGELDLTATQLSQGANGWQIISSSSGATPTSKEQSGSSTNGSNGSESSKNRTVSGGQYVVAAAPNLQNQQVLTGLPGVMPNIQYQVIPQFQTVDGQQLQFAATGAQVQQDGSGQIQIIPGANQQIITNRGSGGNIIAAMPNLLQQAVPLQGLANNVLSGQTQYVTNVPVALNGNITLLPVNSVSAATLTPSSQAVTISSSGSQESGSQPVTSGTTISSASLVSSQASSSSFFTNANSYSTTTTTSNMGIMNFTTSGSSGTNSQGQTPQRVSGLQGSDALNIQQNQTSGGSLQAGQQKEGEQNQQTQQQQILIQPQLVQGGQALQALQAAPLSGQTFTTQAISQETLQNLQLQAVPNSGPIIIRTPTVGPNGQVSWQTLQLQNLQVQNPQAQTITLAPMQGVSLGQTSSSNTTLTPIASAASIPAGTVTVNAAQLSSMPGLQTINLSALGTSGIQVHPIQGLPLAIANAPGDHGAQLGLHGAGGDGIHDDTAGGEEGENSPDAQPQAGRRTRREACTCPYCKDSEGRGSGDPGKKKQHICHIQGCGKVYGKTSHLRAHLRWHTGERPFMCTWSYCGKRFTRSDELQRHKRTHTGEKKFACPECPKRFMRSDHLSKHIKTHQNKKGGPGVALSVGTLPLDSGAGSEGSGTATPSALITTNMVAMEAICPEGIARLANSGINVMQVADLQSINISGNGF

For the test, the target named is SUMO1 (human (endogenous in hTert-BJ1)) (UniProt P63165). Description: co-IP; lysates of hTert-BJ1 Sp1-/- cells expressing Flag-Sp1 constructs, with or without 200 uM H2O2 for 2 h then fresh media for 24 h, 10 uM MG132; TGN buffer with 20 mM NEM and 4% SDS, SDS removed on spin columns; precipitated with pre-conjugated SUMO1 antibody beads overnight at 4 C; western blot with Flag and Sp1. Background: A western blot detects proteins with antibodies after separation by electrophoresis.

Results are given in words; binding and its absence hold for the method and conditions named. In cells and extracts the contact can be indirect. Some results given as binding are weak or reduced against the parent protein; the word gives no strength.

As to “Flag-tagged Sp1 wild-type (from UniProt P08047 1-785)”, the binding entry is recorded as “binds”.

In the case of “Flag-tagged Sp1-30N^WT (from UniProt P08047 1-182) (domain or fragment)”, the binding entry was “binds”.
